# Measured values: the supplement of paper PMC12823440, “Inhibitors supercharge kinase turnover through native proteolytic circuits” (Nature, 2025)
# Chains of the proteins cited; added tags and fusions are not shown. Lines headed by an entry give the natural chain unless they say otherwise; changes in a name come on top.
# UniProt P11802: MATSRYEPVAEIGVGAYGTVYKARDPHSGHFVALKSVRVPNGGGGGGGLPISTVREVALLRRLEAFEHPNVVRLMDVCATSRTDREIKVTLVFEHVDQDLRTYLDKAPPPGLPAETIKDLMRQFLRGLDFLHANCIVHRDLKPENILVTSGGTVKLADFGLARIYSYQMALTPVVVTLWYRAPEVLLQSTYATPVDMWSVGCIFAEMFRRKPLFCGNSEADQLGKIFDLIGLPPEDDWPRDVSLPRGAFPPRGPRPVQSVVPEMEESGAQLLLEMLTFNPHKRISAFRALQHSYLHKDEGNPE
# Structures can show the parent of a compound that is named as a salt. Some of the results follow. Hit calls seldom repeat between salt and free forms of one compound.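 In K562 cells expressing nanoluciferase-fused kinases, luminescence was recorded at 4 h intervals between 2 and 18 h, normalized as percent of control with DMSO at 100% and a positive control at 0%. A significant (2 sigma) signal drop marks a time point as decreased. The authors' rule for a hit is not shown and takes in more than the number of time points.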
# Molecular target: CDK4 (UniProt P11802)
# Test: number of time points (of 4; 2 h point missing) at which kinase-Nluc abundance scored as decreased, DMSO-normalised (count); higher = more persistent destabilization
# Details: K562; 2-18 h
row,SMILES,number of time points
1,O=c1c(O)c(-c2ccc(O)c(O)c2)oc2cc(O)cc(O)c12 [Quercetin (dihydrate)] (10 µM),0
2,Cc1c(C(=O)N2CCOc3ccc(-c4ccc(N)nc4)cc3C2)ccc(S(C)(=O)=O)c1F (10 µM),0
3,Cc1cc(CS(=O)(=O)c2ccccc2)cc(OCc2ccc(CN3CCC[C@@H]3CO)cc2)c1 [PF-543 (Citrate)] (10 µM),0
4,N#CC(=Cc1ccc(O)c(O)c1)C(=O)NCc1ccccc1 (mixture of isomers) (10 µM),0
5,COc1cc(C(=O)NC2CCN(C)CC2)c(F)cc1Nc1ncc2c(n1)N(C1CCCC1)CC(F)(F)C(=O)N2C [TAK-960 (dihydrochloride)] (2.5 µM),0
6,CCCCC[C@H](O)CC(=O)CCc1ccc(O)c(OC)c1 [[6]-Gingerol] (10 µM),0
7,COc1cc2ncnc(Nc3cccc(O)c3)c2cc1OC (10 µM),0
8,C[C@H](NC(=O)/C(C#N)=C/c1cccc(Br)n1)c1ccccc1 (2.5 µM),0
9,C[C@H](CN(C)C)Oc1nc(Nc2cc3cccc(Cl)c3cn2)cnc1C#N (10 µM),0
10,COc1cc2c(Nc3ccc(NC(=O)c4ccccc4)cc3)ncnc2cc1OCCCN1CCOCC1 (10 µM),0
11,Cc1ncc(-c2ccnc(Nc3ccc(S(C)(=O)=O)cc3)n2)n1C(C)C (2.5 µM),0
12,COc1cc2ncnc(Nc3cccc(Cl)c3F)c2cc1OC(=O)N1CCN(C)C[C@H]1C [Zorifertinib] (10 µM),0
13,CC(C)(C)c1cc(NC(=O)Nc2ccc(-c3cn4c(n3)sc3cc(OCCN5CCOCC5)ccc34)cc2)no1 [Quizartinib] (10 µM),0
14,CC(C)c1ccc2oc3nc(N)c(C(=O)O)cc3c(=O)c2c1 [Amlexanox] (10 µM),0
15,Cc1ccc(NC(=O)c2cccc(N(C)C)c2)cc1NC(=O)c1ccc(O)cc1 (10 µM),0
16,C=CC(=O)N1CC[C@H](n2nc(C#Cc3cc(OC)cc(OC)c3)c3c(N)ncnc32)C1 [Futibatinib] (10 µM),0
17,CNC(=O)c1cc(Oc2ccc(NC(=O)Nc3cc(C(C)(C)C)nn3-c3ccc4ncccc4c3)c(F)c2)ccn1 [Rebastinib] (2.5 µM),0
18,COc1nccc(-c2c(-c3ccc(F)cc3)ncn2C2CCC(O)CC2)n1 (centres undefined) (10 µM),0
19,O=c1c(-c2ccc(O)cc2)coc2cc(O)cc(O)c12 [Genistein] (10 µM),0
20,CC#CC(=O)N[C@H]1CCCN(c2c(F)cc(C(N)=O)c3[nH]c(C)c(C)c23)C1 [Branebrutinib] (10 µM),0

# Sorted by formula weight (smallest number first): 3 of the compounds above
row,SMILES,number of time points
6,CCCCC[C@H](O)CC(=O)CCc1ccc(O)c(OC)c1 [[6]-Gingerol] (10 µM),0
20,CC#CC(=O)N[C@H]1CCCN(c2c(F)cc(C(N)=O)c3[nH]c(C)c(C)c23)C1 [Branebrutinib] (10 µM),0
16,C=CC(=O)N1CC[C@H](n2nc(C#Cc3cc(OC)cc(OC)c3)c3c(N)ncnc32)C1 [Futibatinib] (10 µM),0

# Remaining list, next part.

row,SMILES,number of time points
1,CCn1c(=O)c2cc(C(N)=O)c(N)nc2n(C2CC2)c1=O (10 µM),0
2,COc1cc(F)cc([C@@H](CO)NC(=O)[C@@H](C)N2Cc3ccc(-c4nc(NC5CCOCC5)ncc4Cl)cc3C2=O)c1 [ERK1/2 inhibitor 2] (10 µM),0
3,Cc1ccc2c(Nc3ccc(Cl)cc3)nccc2c1Nc1ncccc1-c1ncnc2nc[nH]c12 [Raf inhibitor 1] (2.5 µM),0
4,CCCCNc1ncc(-c2ccc(CN3CCOCC3)cn2)c(NC2CCC(O)CC2)n1 (centres undefined) (10 µM),0
5,CC(C)=CC/C=C(\C)[C@H]1CC[C@]2(C)[C@@H]1[C@H](O)C[C@@H]1[C@@]3(C)CC[C@H](O[C@@H]4O[C@H](CO)[C@@H](O)[C@H](O)[C@H]4O[C@@H]4O[C@H](CO)[C@@H](O)[C@H](O)[C@H]4O)C(C)(C)[C@@H]3CC[C@]12C [Ginsenoside Rg5] (10 µM),0
6,N#Cc1ccc2[nH]c(O)c(-c3ccc(CN4CCOCC4)cn3)c2c1 (10 µM),0
7,Oc1cc(O)cc(/C=C/c2ccc(O)c(O)c2)c1 [Piceatannol] (10 µM),0
8,CC(C)(C)S(=O)(=O)c1cc2c(Nc3ccc4scnc4c3)ncnc2cc1OCCO (2.5 µM),0
9,COc1c(Cl)cc2c([nH]c3cnccc32)c1NC(=O)c1cccnc1C (10 µM),0
10,CC(C)C(=O)Nc1ncc(-c2cc(C(F)F)nn2-c2c(Cl)cccc2Cl)s1 (10 µM),3
11,COc1cc2nc(C)nc(N[C@H](C)c3cc(N)cc(C(F)(F)F)c3)c2cc1O[C@H]1CCOC1 (10 µM),0
12,COc1cc(OC)c(F)c(COc2cnc(Nc3cnn(CCO)c3)nc2)c1F (2.5 µM),0
13,O=c1cc(N2CCOCC2)oc2c(-c3ccccc3)cccc12 (10 µM),0
14,O=C(NOC[C@H](O)CO)c1ccc(F)c(F)c1Nc1ccc(I)cc1F (2.5 µM),0
15,CC(C)(C)c1nc2c3cc[nH]c(=O)c3c3cc(F)ccc3c2[nH]1 [Pyridone 6] (10 µM),0
16,COCc1c(-c2ccc(NC(=O)Nc3cc(C(F)(F)F)ccc3F)c(F)c2)c2c(N)ncnn2c1CN1CCOCC1 (2.5 µM),0
17,COCCOc1cc2nccc(Nc3n[nH]c(C)c3C)c2cc1S(=O)(=O)C(C)(C)C [RIP2 kinase inhibitor 2] (2.5 µM),0
18,Cc1ccc(F)c(NC(=O)Nc2ccc(-c3cccc4[nH]nc(N)c34)cc2)c1 [Linifanib] (2.5 µM),0
19,Cn1nc(C(C)(C)C)cc1NC(=O)Nc1ccc(Oc2ccncc2)cc1 (10 µM),0
